About 4,000 (1%) of roughly 390,000 compounds were called active. Inconclusive results, whose numbers are uncertain, are shown with a selection of clear calls. Calls come from the whole dose curve; as a rule, active = well fitted inhibition curve with a large enough effect; inconclusive = small, poorly fitted or top-dose-only effect, or another doubt; inactive = no such curve, though single readings can be large or run the other way. Where the call is inconclusive, the potency comes from a doubtful curve fit.
target: DNA polymerase iota (Homo sapiens) (UniProt Q9UNA4); assay: qHTS for Inhibitors of Polymerase Iota; settings: Pol iota fluorescent replication assay, 10 min; series mostly up to 115 µM; activity, negative = inhibition: at the top concentration
In short: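 Pol iota at 10 nM preincubated 15 min with compounds at room temperature; reaction started with fluorescent substrate, 50 nM final. Fluorescence read kinetically at 0 and 10 min; buffer-only wells as negative control.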
Potency is the fitted concentration of half-maximal effect.

Chains of the proteins cited; added tags and fusions are not shown. Lines headed by an entry give the natural chain unless they say otherwise; changes in a name come on top.
UniProt Q9UNA4: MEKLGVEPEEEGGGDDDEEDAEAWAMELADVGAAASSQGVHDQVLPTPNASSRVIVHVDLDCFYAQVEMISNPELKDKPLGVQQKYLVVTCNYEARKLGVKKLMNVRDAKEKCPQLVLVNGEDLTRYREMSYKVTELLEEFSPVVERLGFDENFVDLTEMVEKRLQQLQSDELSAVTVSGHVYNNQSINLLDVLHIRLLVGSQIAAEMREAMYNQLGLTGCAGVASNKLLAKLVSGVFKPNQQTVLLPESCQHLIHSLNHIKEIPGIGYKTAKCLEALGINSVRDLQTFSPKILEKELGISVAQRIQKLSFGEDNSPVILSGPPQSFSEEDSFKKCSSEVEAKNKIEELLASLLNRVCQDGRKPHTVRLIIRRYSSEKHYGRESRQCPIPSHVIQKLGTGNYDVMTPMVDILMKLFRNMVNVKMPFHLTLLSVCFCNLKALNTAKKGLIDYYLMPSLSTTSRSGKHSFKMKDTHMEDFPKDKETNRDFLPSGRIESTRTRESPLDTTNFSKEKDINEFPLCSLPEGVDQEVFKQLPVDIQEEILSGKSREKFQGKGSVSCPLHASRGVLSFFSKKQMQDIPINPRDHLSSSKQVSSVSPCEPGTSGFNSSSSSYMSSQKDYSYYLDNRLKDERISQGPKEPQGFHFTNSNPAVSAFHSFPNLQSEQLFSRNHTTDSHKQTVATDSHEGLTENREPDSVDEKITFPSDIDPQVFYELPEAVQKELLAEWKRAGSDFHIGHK

Row | SMILES | Potency | activity, negative = inhibition
1 | Cc1ccc(C(=O)N/C(=C/c2ccco2)C(=O)NCc2ccco2)cc1 | inconclusive: 5.01 µM [inhibitor, partial curve, poor fit] | –
2 | CCn1c(=O)n(CC)c2cc(N3CCCC3)c(NC(=O)Nc3cc(C)cc(C)c3)cc21 | – | inactive: 18.3%
3 | NC(=O)c1ccsc1NC(=O)CSc1ncnc2sccc12 | inconclusive: 22.4 µM [inhibitor, single point] | –
4 | Oc1ccc(C[C@H]2CNCCN2CCc2cc(C(F)(F)F)cc(C(F)(F)F)c2)cc1 | inconclusive: 20 µM [inhibitor, full curve] | –
5 | Cn1nnnc1SCCNCc1cccnc1 | inconclusive: 39.8 µM [inhibitor, single point] | –
6 | CN1C(=O)/C(=C\c2cc(N=Nc3ccccc3)ccc2O)SC1=S | inconclusive: 7.08 µM [inhibitor, full curve, poor fit] | –
7 | CCOc1ccc(-c2nnc(SCC(=O)Nc3cc(C)ccc3OC)o2)cc1 | – | inactive: -4.27%
8 | O=C(NCCc1ccco1)c1nn(Cc2ccccc2)c(=O)c2ccccc12 | inconclusive: 25.1 µM [inhibitor, single point] | –
9 | Cc1ccc(S(=O)(=O)N(C(=O)c2ccco2)c2cc3sc(=O)oc3c3ccccc23)cc1 | inconclusive: 3.98 µM [inhibitor, full curve, poor fit] | –
10 | CCn1c(CN2CCCCC2)nc2cc(NC(=O)c3cccc([N+](=O)[O-])c3)ccc21 | – | inactive: 11.8%
11 | COc1ccc(NC(=O)C2CCN(S(C)(=O)=O)CC2)cc1Cl | inconclusive: 79.4 µM [inhibitor, single point] | –
12 | COc1cccc2sc(Nc3nc4ccc(NC(C)=O)cc4s3)nc12 | active: 15.8 µM | –
13 | COc1ccc(S(=O)(=O)NCCSc2ccccc2)cc1OC | inconclusive: 141 µM [inhibitor, partial curve, poor fit] | –
14 | COc1cccc(C(=O)NC2CC3CCCC(C2)N3CC(=O)Nc2ccc(N(C)C)cc2)c1 (stereo unspecified) | – | inactive: 9.93%
15 | CCCn1c2c(c(O)c(C(=O)Nc3ncccc3C)c1=O)CCCC2 | inconclusive: 100 µM [inhibitor, single point] | –
16 | CN(C(=O)c1cc2nc(-c3ccc4c(c3)OCO4)cc(C(F)(F)F)n2n1)c1ccc(OC(F)(F)F)cc1 | – | inactive: -6.65%
17 | CCCSc1nc2sc3c(c2c(=O)n1-c1ccc(C)c(Cl)c1)CCN(C(C)=O)C3 | inconclusive: 20 µM [inhibitor, full curve] | –
18 | Cc1ccc(C)c(SCC(=O)Nc2ccc(S(=O)(=O)Nc3ncccn3)cc2)c1 | inconclusive: 11.2 µM [inhibitor, full curve, poor fit] | –
19 | Cc1ccc(C)c(NC(=O)c2ncn[nH]2)c1 | inconclusive: 79.4 µM [inhibitor, single point] | –
20 | COc1ccc(NS(=O)(=O)c2ccc(-n3cccn3)cc2)cc1OC | – | inactive: -2.2%
21 | COc1cc(OC)c2c(-c3ccccc3)cc(=O)oc2c1C(CC(=O)N1CCCC1)c1ccc2c(c1)OCO2 (stereo unspecified) | active: 79.4 µM | –
22 | CCSc1nnc(Cc2cc(=O)[nH]c(=O)[nH]2)n1-c1cccc(C)c1 | inconclusive: 2.51 µM [inhibitor, partial curve, poor fit] | –

From compound 1 up to 3, copied from above:
Row | SMILES | Potency | activity, negative = inhibition
1 | Cc1ccc(C(=O)N/C(=C/c2ccco2)C(=O)NCc2ccco2)cc1 | inconclusive: 5.01 µM [inhibitor, partial curve, poor fit] | –
2 | CCn1c(=O)n(CC)c2cc(N3CCCC3)c(NC(=O)Nc3cc(C)cc(C)c3)cc21 | – | inactive: 18.3%
3 | NC(=O)c1ccsc1NC(=O)CSc1ncnc2sccc12 | inconclusive: 22.4 µM [inhibitor, single point] | –

(listing goes on)

Row | SMILES | Potency | activity, negative = inhibition
23 | CCSc1nnc(NC(=O)C2Cc3ccccc3CN2S(=O)(=O)CC)s1 (stereo unspecified) | inconclusive: 14.1 µM [inhibitor, partial curve, poor fit] | –
24 | COc1cc(NS(=O)(=O)c2cc(Br)cc3c2N(C(=O)C2CC2)CC3)cc(OC)c1 | inconclusive: 89.1 µM [inhibitor, single point] | –
25 | Cc1ccc(C(=O)Nc2cccc(-c3cnc4ccccc4n3)c2)cc1 | – | inactive: 25.6%
26 | CCOC(=O)Cn1cc(/C=N/NC(=O)c2cc3ccccc3o2)c2ccccc21 | inconclusive: 35.5 µM [inhibitor, partial curve, poor fit] | –
27 | C=CCn1cnc2sc(C(=O)Nc3ccccc3OC)c(C)c2c1=O | inconclusive: 50.1 µM [inhibitor, partial curve] | –
28 | Cc1cccc(NC(=O)Cn2c(=O)c3cccn3c3ccccc32)c1C | – | inactive: -4.46%
29 | CCS(=O)(=O)c1cccc(C(=O)Nc2ccc(-c3nc4ccccc4s3)c(O)c2)c1 | inconclusive: 35.5 µM [inhibitor, partial curve] | –
30 | C[C@H](NC(=O)c1nc[nH]c1C(=O)N1CCNCC1)C(=O)OCc1ccccc1 | inconclusive: 31.6 µM [inhibitor, single point] | –
31 | O=C(O)c1ccc2c3c(ncnc13)-c1ccccc1C2=O | inconclusive: 10 µM [inhibitor, full curve, poor fit] | –
32 | O=C(CCCn1c(=O)c2sccc2n(CC(=O)NCc2ccco2)c1=O)NCc1ccco1 | inconclusive: 44.7 µM [inhibitor, partial curve] | –
33 | CC1CCN(S(=O)(=O)c2ccc(C(=O)N3CCCC(C(F)(F)F)C3)cc2)CC1 (stereo unspecified) | inconclusive: 89.1 µM [inhibitor, single point] | –
34 | COc1cccc(CNC(=O)Cn2ccc([N+](=O)[O-])n2)c1 | inconclusive: 112 µM [inhibitor, partial curve, poor fit] | –
35 | Cc1ccc(CCNC(=O)CN(c2ccc(C(C)C)cc2)S(=O)(=O)c2c(C)nn(C)c2C)cc1 | – | inactive: 2.61%
36 | O=C(CN1CCCCCC1)N/N=C/c1ccc2ccccc2c1 | – | inactive: 35.9%
37 | CCc1ccc(CN(Cc2cn[nH]c2-c2ccc(OC)cc2)C(=O)Nc2ccc(Br)cc2)cc1 | – | inactive: 18%
38 | Cc1ccc(/C=N/NC(=O)c2cc(-c3ccncc3)nc3ccccc23)o1 | – | inactive: 22.8%
39 | O=C(NCc1ccc(OC(F)(F)F)cc1)c1cc(-c2ccccc2)nn1CC1CC(c2cccnc2)=NO1 (stereo unspecified) | inconclusive: 22.4 µM [inhibitor, partial curve, poor fit] | –
40 | CCc1nn(CC(=O)NCCOC)c(=O)c2cc3cc(F)ccc3n12 | – | inactive: 34.1%
41 | O=C(COn1nnc2ccccc21)NCC1CCCCC1 | inconclusive: 0.708 µM [inhibitor, full curve, poor fit] | –
42 | O=C1CCCC/C1=C\Nc1ccc(S(=O)(=O)Nc2cnc3ccccc3n2)cc1 | inconclusive: 39.8 µM [inhibitor, partial curve] | –
43 | O=C(COC(=O)c1ccc(Cl)c(S(=O)(=O)N2CCCC2)c1)NCc1cccs1 | inconclusive: 44.7 µM [inhibitor, partial curve] | –
44 | O=C(O)CCS(=O)(=O)c1nc(-c2cccs2)cc(C(F)(F)F)n1 | inconclusive: 17.8 µM [inhibitor, full curve, poor fit] | –

Row | SMILES | Potency | activity, negative = inhibition
45 | O=C(O)c1ccccc1C(=O)N(c1ccccc1)c1ccccc1 | inconclusive: 0.631 µM [inhibitor, full curve, poor fit] | –
46 | CCOC(=O)c1cnc2c(C(F)(F)F)cccc2c1Nc1cccc(C(=O)OC)c1 | inconclusive: 39.8 µM [inhibitor, single point] | –
47 | Cc1cc(C)c(NC(=O)CSc2ncc(S(=O)(=O)c3ccc(C(C)(C)C)cc3)c(=O)[nH]2)c(C)c1 | – | inactive: -2.65%
48 | C/C(N)=C(/C#N)C(=O)CSc1nnc(COc2ccccc2Cl)o1 | active: 89.1 µM | –
49 | [O-]c1c[n+](-c2ccccc2)no1 | – | inactive: -4.58%
50 | Cc1nnc(NC(=O)/C=C/c2ccco2)s1 | inconclusive: 31.6 µM [inhibitor, single point] | –
51 | CCOc1cc(CNc2nn[nH]n2)ccc1OCC(=O)NC(C)(C)C | – | inactive: -6.14%
52 | Cc1ccc(-c2csc(NC(=O)c3cccc(N4C(=O)CCC4=O)c3)n2)o1 | inconclusive: 39.8 µM [inhibitor, partial curve, poor fit] | –
53 | CCc1ccc(CNC(=O)C2CCN(C(=O)N3CC(CC)Oc4ccc(C)cc43)CC2)cc1 (stereo unspecified) | – | inactive: 34.7%
54 | COc1cc2[nH]c(=O)n(CCCC(=O)NCc3ccccc3)c(=O)c2cc1OC | – | inactive: -17.1%
55 | COc1ccccc1OCCC(=O)OCC(=O)Nc1ncc(Cl)cc1Cl | inconclusive: 17.8 µM [inhibitor, full curve, poor fit] | –
56 | COc1ccccc1CNC(=O)CN1C(=O)CCc2cc(S(=O)(=O)N3CCOCC3)ccc21 | inconclusive: 89.1 µM [inhibitor, single point] | –
57 | O=C(Cc1cccs1)Nc1nc2c(s1)CCCC2 | inconclusive: 25.1 µM [inhibitor, single point] | –
58 | Cc1ccc(OCc2nc(-c3ccc(C(=O)NCCc4ccc(S(N)(=O)=O)cc4)cc3)oc2C)cc1 | active: 79.4 µM | –
59 | CC1CCCC(C)N1C(=O)COC(=O)CCC(=O)c1ccc(F)cc1 (stereo unspecified) | inconclusive: 100 µM [inhibitor, single point] | –
60 | COCCCn1c(O)c(/C=C2\N=C(C#N)C(=Nc3ccc(C)cc3)O2)sc1=S | inconclusive: 20 µM [inhibitor, partial curve, poor fit] | –
61 | CN1C(=O)c2cccc3c(N)ccc(c23)C1=O | inconclusive: 39.8 µM [inhibitor, single point] | –
62 | COC(=O)c1ccc(/C=C2\CCn3c2nc2cc(C(=O)O)ccc2c3=O)cc1 | inconclusive: 28.2 µM [inhibitor, single point] | –
63 | NNS(=O)(=O)c1ccc2c(c1)Cc1cc(S(=O)(=O)NN)ccc1-2 | inconclusive: 14.1 µM [inhibitor, full curve, poor fit] | –
64 | Cc1cccc(C(=O)Nc2ccccc2SCC2CSc3nc4ccccc4c(=O)n32)c1 (stereo unspecified) | – | inactive: 13.6%
65 | Cc1csc(NC(=O)CSc2nnc(-c3ccoc3C)n2Cc2ccco2)n1 | inconclusive: 39.8 µM [inhibitor, single point] | –
66 | Cc1ccc(NC(=O)CN2C(=O)CCc3cc(S(=O)(=O)N4CCCCC4)ccc32)cc1N(C)C | inconclusive: 89.1 µM [inhibitor, partial curve, poor fit] | –

Reference: PubChem BioAssay AID588590 (National Center for Advancing Translational Sciences (NCATS), 2011)
